Laboratory results published in patent US20220396626A1.
Results are given in words; binding and its absence hold for the method and conditions named. Some entries that bind do so weakly or less than the wild type.

T1: human CLL1 on the surface of transfected cells (HEK293-CLL1; HEK-293T membrane proteome array) (human) (UniProt Q5QGZ9)
T1 sequence (looked up): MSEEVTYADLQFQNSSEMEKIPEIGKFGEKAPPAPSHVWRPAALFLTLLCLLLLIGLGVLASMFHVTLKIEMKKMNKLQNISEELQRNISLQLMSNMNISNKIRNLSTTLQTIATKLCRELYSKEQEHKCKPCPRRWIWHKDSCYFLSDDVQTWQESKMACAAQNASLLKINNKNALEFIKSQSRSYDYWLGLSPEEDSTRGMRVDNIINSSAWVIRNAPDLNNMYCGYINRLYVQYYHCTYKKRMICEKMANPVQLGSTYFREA


Columns and labels:
[1] = biological target: T1, human CLL1 on the surface of transfected cells (HEK293-CLL1; HEK-293T membrane proteome array) (human); experiment: flow cytometry on HEK293 cells overexpressing CLL1
[2] = biological target: T1, human CLL1 on the surface of transfected cells (HEK293-CLL1; HEK-293T membrane proteome array) (human); experiment: flow cytometry on HEK293 cells overexpressing CLL1, 0.01-1 ug/mL antibody
[3] = biological target: T1, human CLL1 on the surface of transfected cells (HEK293-CLL1; HEK-293T membrane proteome array) (human); experiment: flow cytometry on 293T cells transiently transfected with CLL1 (title on the sheet); concentrations 5, 1, 0.2, 0.04, 0.008, unit not printed on the sheet
[4] = biological target: human CLL1 ECD-His (human CLL1 extracellular domain with His tag) (human) (UniProt Q5QGZ9); experiment: BLI (ForteBio), antibody on AHC sensor, 60 nM human CLL1 ECD-His, compared with ch27H4

| Binder | binding [1] | binding [2] | binding [3] | binding [4] |
| --- | --- | --- | --- | --- |
| anti-human CLL-1 control antibody 1075.7 (antibody) scFv: ENVLTQSPAIMSASPGEKVTMTCRASSNVISSYVHWYQQRSGASPKLWIYSTSNLASGVPARFSGSGSGTSYSLTISSVEAEDAATYYCQQYSGYPLTFGAGTKLELGGGGSGGGGSGGGGSDIQLQESGPGLVKPSQSLSLTCSVTGYSITSAYYWNWIRQFPGNKLEWMGYISYDGRNNYNPSLKNRISITRDTSKNQFFLKLNSVTTEDTATYYCAKEGDYDVGNYYAMDYWGQGTSVTVSS | binds | binds | binds |  |
| humanized antibody hz27H4H1L1 (antibody, V domains shown) VH: EVQLVQSGAEVKKPGASVKVSCKASGYTFTGYHMHWVRQAPGQRLEWMGRINPYNGAASHNQKFKDRVTITRDTSASTAYMELSSLRSEDTAVYYCARGWDYDGGYYAMDYWGQGTLVTVSS VL: DIQMTQSPSSLSASVGDRVTITCKSSQSLLYSDNQKNYLAWYQQKPGKAPKLLIYWASTRESGVPSRFSGSGSGTDFTLTISSLQPEDFATYYCQQYYTYPYTFGQGTKLEIK |  |  |  | binds |
| humanized antibody hz27H4H1L2 (antibody, V domains shown) VH: EVQLVQSGAEVKKPGASVKVSCKASGYTFTGYHMHWVRQAPGQRLEWMGRINPYNGAASHNQKFKDRVTITRDTSASTAYMELSSLRSEDTAVYYCARGWDYDGGYYAMDYWGQGTLVTVSS VL: DIVMTQSPLSLPVTPGEPASISCKSSQSLLYSDNQKNYLAWYLQKPGQSPQLLIYWASTRESGVPDRFSGSGSGTDFTLKISRVEAEDVGVYYCQQYYTYPYTFGQGTKLEIK |  |  |  | binds |
